Hit rate of the full screen: of about 400,000 compounds, about 13,000 (3.2%) were called active. The inconclusive results got no clear call from the source; some entries with a clear call stand among them for comparison. Calls follow the shape of the dose curve; as a rule, active = well fitted cell-killing curve with a large enough effect; inconclusive = small, poorly fitted or top-dose-only effect, or effect the other way; inactive = flat fitted curve, though single readings scatter. A potency beside an inconclusive call is a rough fit, not a confirmed value.
Experiment: qHTS assay for MDR1-selective chemotherapeutics: Primary screen using the drug-selected MDR subline cells KB-V1; also: nearly all actives have a fitted effect of over 60% in size
Conditions: KB-V1 MDR cells viability, CellTiter-Glo, 72 h; activity change, negative = cytotoxicity: at 46.1 µM (top of the series)
In short: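 Drug-selected KB-V1 cells, grown in DMEM lacking phenol red with 10% FBS, receive compound titrations; after three days at 37 degrees C, surviving cell ATP is quantified by CellTiter-Glo luminescence and responses normalized and curve-fitted.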
% is scaled to controls: 0 for no effect and ±100 for the full control effect; potency is read from the fitted curve at half-maximal effect.

Row | SMILES | Potency | activity change, negative = cytotoxicity
1 | Clc1ccc2c(SCC3CO3)c3ccccc3nc2c1 (stereo not drawn) | active: 16.4 µM | 
2 | CCCCNC(=S)N(C)/N=C/c1ccc(OCc2ccc(C(=O)OC)cc2)c(OC)c1 | active: 13 µM | 
3 | CCOC(=O)C1CCCN(C(=O)/C=C/c2cc(OC)c(OC)c(OC)c2)C1 (stereo not drawn) | inconclusive: 5.8 µM [cytotoxic, partial curve, poor fit] | 
4 | COc1ccc(-c2cc(C)no2)cc1S(=O)(=O)NCc1cccc(C)c1 | inconclusive: 25.9 µM [cytotoxic, single point] | 
5 | CCCCOc1ccc(N2C(=O)C(C)CNC2=S)cc1 (stereo not drawn) | inactive | 
6 | CCOC(=O)c1cccc(NC(=O)CCOc2ccccc2)c1 | inconclusive: 20.6 µM [cytotoxic, partial curve] | 
7 | CC1=C(C(=O)NCc2cccc(F)c2)C2(CCCCCC2)OC1=O | inactive | 
8 | CCCOc1ccc(F)cc1-c1cc(C(=O)Nc2ccc(F)c(Cl)c2)[nH]n1 | inconclusive: 29.1 µM [cytotoxic, partial curve, poor fit] | 
9 | O=c1[nH]cc(S(=O)(=O)N2CCCc3ccccc32)c(=O)[nH]1 | inactive | 
10 | C[C@@H]1CN([C@H](C)CO)C(=O)CCCn2cc(nn2)CO[C@H]1CN(C)S(=O)(=O)c1ccccc1 | inactive | 
11 | Cc1ccc(-n2ncc(C(=O)Nc3ccc4c(c3)OCCO4)c2C2CCN(C(=O)OC(C)(C)C)CC2)cc1C | inactive | 
12 | Cc1cccc(NC(=O)CCc2ccc(N3C(N)=NC(N)=NC3(C)C)cc2)c1 | inconclusive: 23.1 µM [rising, partial curve, poor fit] | 
13 | CC(C)N(Cc1nc(-c2ccccc2)no1)C(=O)CN1C(=O)c2ccccc2C1=O | active: 10.3 µM | 
14 | COc1ccc(NC(=O)c2ccccc2SC)c(OC)c1 | inconclusive: 2.31 µM [rising, partial curve, poor fit] | 
15 | N#CC(C(=O)C12CC3CC(CC(C3)C1)C2)c1nc2ccccc2[nH]1 (stereo not drawn) | inconclusive: 23.1 µM [cytotoxic, single point] | 
16 | Cc1ccc(CNC(=O)Cc2ccc(-c3ccccc3)cc2)cc1 | inactive | 
17 | Cc1c(-c2ccc(Br)cc2)[n+](=O)c2c(n1[O-])CCCC2 | inconclusive: 16.4 µM [cytotoxic, single point] | 
18 | Cc1nnsc1C(=O)N1CCCC(C)(C(=O)NS(=O)(=O)C2CC2)C1 (stereo not drawn) | inactive | 
19 | Fc1ccc2nc(C3CCCCN3Cc3nc(CC4CC4)no3)[nH]c2c1 (stereo not drawn) | inconclusive: 9.2 µM [cytotoxic, partial curve] | 
20 | Nc1cc(N)nc(SCCOc2ccccc2F)n1 | active: 23.1 µM | 
21 | CN(CC(=O)Nc1ccc(F)c(F)c1F)C(=O)C1CCCCC1 | inactive | 
22 | COCCN1CCc2nc(SCC(=O)Nc3ccc(C)c(Cl)c3)[nH]c(=O)c2C1 | inconclusive: 20.6 µM [rising, single point] | 
23 | CCC(=O)NC(C)c1nc2ccccc2n1C (stereo not drawn) | inactive | 
24 | O=C(c1ccccc1)c1nn(-c2cccc(Cl)c2)c2nc(-c3ccccc3)cc(=O)n12 | active: 4.11 µM | 

Row | SMILES | Potency | activity change, negative = cytotoxicity
25 | CC(C)CCOc1cccc(OCC(=O)Nc2ccncc2)c1 | active: 2.91 µM | 
26 | Cc1cc(C(=O)CSc2nnnn2C)c(C)n1C1CC1 | inactive | 
27 | O=C(NC(=S)Nc1ccc2[nH]c(=O)[nH]c2c1)c1ccccc1Cl | inactive | 
28 | O=C(CSc1nc(Cc2ccccc2)nc2ccccc12)c1ccc2c(c1)OCCO2 | inconclusive: 1.46 µM [cytotoxic, full curve, poor fit] | 
29 | Cc1ccc(C(=O)Nc2ncccc2O)cc1S(=O)(=O)N1CCCCC1 | inconclusive: 23.1 µM [cytotoxic, single point] | 
30 | CS(=O)(=O)c1ccccc1C(=O)Nc1ccccc1Cc1ccccc1 | inconclusive: 20.6 µM [cytotoxic, partial curve, poor fit] | 
31 | Cc1noc(C)c1COC(=O)CNC(=O)c1ccc(Cl)cc1 | inconclusive: 29.1 µM [rising, single point] | 
32 | CN(C)c1ccc(CN(C(=O)/C=C/c2ccccc2Cl)C2CCS(=O)(=O)C2)cc1 (stereo not drawn) | inactive | 
33 | O=C(/C=C/c1ccc(O)cc1)c1ccc(NC2=C(N3CCCCC3)C(=O)c3ccccc3C2=O)cc1 | inconclusive: 16.4 µM [cytotoxic, single point] | 
34 | COc1ccc(S(=O)(=O)N2CCC(c3cc(-c4cccc5ccccc45)n[nH]3)CC2)cc1 | inconclusive: 29.1 µM [cytotoxic, single point] | 
35 | COc1ccc(Cn2c(SCc3ccc(C(=O)NCc4ccc(C)cc4)cc3)nc3cccnc32)cc1 | inactive | 
36 | CCN(CCCNC(=O)c1[nH]c(C)c(C(C)=O)c1C)c1ccccc1 | inconclusive: 20.6 µM [cytotoxic, single point] | 
37 | O=S(=O)(c1ccccc1OC(F)(F)F)N1CCN(c2ccnc3cc(Cl)ccc23)CC1 | inconclusive: 16.4 µM [cytotoxic, single point] | 
38 | CCOC(=O)c1cccc(NC(=O)CSc2nc3ccccc3c(=O)n2CC)c1 | active: 2.31 µM | 
39 | COc1cc(OC)c2c(C)cc(=O)oc2c1C(CCN1CCOCC1)c1ccc(N(C)C)cc1 (stereo not drawn) | inactive | 
40 | CC1(C(=O)Nc2ccc(Cl)c(C(F)(F)F)c2)Cc2c(-c3cccc(C(N)=O)c3)ccnc2O1 (stereo not drawn) | inconclusive: 29.1 µM [cytotoxic, single point] | 
41 | CCN(CC)C(=O)CSc1nnc(-n2nc(C)cc2C)c2ccccc12 | active: 13 µM | 
42 | CCCC1CCc2c(sc(NC(=O)OCC)c2C#N)C1 (stereo not drawn) | active: 5.8 µM | 
43 | C#Cc1ccc(C(=O)Nc2ccc(N3CCC(C)CC3)c(C(N)=O)c2)cc1 | inactive | 
44 | O=C(NCCOc1ccccc1)C1CCC(=O)N(CCc2ccc(Cl)cc2)C1 (stereo not drawn) | inconclusive: 13 µM [cytotoxic, partial curve] | 
45 | C/C(=N\OCC(=O)Nc1nc2ccccc2s1)c1ccccc1 |  | inconclusive: -35.4%
46 | O=C(Nc1ccc(OC(F)F)c(Cl)c1)C(c1ccccc1)c1ccccc1 | inconclusive: 18.4 µM [cytotoxic, single point] | 
47 | COc1ccc(C2/C=C\CN(C(=O)Oc3ccccc3)CC(=O)N2Cc2ccc(F)cc2)cc1 (stereo not drawn) | inactive | 
48 | Cc1ccc(NC(=O)c2c(NC(=O)CCC(=O)O)sc3c2CCCCC3)cc1 | inconclusive: 13 µM [rising, partial curve, poor fit] | 

Three entries from above, sorted by SMILES length, ascending:
Row | SMILES | Potency | activity change, negative = cytotoxicity
26 | Cc1cc(C(=O)CSc2nnnn2C)c(C)n1C1CC1 | inactive | 
36 | CCN(CCCNC(=O)c1[nH]c(C)c(C(C)=O)c1C)c1ccccc1 | inconclusive: 20.6 µM [cytotoxic, single point] | 
46 | O=C(Nc1ccc(OC(F)F)c(Cl)c1)C(c1ccccc1)c1ccccc1 | inconclusive: 18.4 µM [cytotoxic, single point] | 
